Reference: the supplement of paper PMC12067093, “Discovery and optimisation of a covalent ligand for TRIM25 and its application to targeted protein ubiquitination” (Chemical Science, 2025)
The other results are listed elsewhere or left out.

Amino acid sequences for entries named in this document (tags omitted). A change or cut given only in a name is not applied to a line headed by its entry.
UniProt Q3ZCW2: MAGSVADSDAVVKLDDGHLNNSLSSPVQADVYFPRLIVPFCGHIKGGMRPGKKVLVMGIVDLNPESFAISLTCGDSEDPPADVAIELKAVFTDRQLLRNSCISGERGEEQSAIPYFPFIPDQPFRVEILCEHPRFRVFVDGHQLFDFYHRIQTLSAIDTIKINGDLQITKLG
UniProt Q96GY3: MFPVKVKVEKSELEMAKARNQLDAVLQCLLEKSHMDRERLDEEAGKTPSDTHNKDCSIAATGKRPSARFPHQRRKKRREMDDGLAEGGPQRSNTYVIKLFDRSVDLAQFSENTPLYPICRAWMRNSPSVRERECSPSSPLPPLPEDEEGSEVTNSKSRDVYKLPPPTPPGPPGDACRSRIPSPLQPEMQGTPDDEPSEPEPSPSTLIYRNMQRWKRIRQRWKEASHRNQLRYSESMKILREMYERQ
UniProt Q9UHB6: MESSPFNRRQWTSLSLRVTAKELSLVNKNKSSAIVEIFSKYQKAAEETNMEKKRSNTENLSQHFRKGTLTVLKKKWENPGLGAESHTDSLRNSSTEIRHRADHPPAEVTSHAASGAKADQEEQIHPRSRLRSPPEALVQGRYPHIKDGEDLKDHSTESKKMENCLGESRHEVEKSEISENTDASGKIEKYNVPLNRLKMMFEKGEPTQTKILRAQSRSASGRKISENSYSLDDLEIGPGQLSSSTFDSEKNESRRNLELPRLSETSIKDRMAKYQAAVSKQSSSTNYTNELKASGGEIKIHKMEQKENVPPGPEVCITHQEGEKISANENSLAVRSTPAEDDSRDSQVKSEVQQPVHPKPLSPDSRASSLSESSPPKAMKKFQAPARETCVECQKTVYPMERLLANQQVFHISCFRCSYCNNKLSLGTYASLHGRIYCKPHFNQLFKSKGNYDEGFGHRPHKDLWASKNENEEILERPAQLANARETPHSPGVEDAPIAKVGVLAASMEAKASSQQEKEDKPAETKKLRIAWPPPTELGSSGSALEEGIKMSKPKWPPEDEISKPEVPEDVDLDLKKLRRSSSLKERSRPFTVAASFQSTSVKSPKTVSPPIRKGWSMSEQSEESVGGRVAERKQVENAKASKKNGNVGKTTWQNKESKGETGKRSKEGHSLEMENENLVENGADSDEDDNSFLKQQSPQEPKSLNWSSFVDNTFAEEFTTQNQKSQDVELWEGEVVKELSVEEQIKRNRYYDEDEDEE
UniProt Q93052: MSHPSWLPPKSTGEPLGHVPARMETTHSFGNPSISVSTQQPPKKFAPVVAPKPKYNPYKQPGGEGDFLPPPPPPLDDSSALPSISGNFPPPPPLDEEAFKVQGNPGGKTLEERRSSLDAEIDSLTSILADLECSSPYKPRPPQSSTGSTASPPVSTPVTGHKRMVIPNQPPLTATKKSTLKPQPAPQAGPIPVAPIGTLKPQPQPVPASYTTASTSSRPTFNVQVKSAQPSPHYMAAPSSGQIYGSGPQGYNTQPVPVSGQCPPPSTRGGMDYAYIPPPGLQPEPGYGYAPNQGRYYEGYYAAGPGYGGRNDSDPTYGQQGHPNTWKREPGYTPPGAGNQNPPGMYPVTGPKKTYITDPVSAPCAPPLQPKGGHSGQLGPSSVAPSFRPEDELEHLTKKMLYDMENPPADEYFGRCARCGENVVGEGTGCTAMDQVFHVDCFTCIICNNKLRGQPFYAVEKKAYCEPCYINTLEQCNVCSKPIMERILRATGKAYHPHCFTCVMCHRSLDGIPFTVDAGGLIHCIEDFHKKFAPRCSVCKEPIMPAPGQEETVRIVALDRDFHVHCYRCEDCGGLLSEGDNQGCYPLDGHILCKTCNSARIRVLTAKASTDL
UniProt Q8IWT6: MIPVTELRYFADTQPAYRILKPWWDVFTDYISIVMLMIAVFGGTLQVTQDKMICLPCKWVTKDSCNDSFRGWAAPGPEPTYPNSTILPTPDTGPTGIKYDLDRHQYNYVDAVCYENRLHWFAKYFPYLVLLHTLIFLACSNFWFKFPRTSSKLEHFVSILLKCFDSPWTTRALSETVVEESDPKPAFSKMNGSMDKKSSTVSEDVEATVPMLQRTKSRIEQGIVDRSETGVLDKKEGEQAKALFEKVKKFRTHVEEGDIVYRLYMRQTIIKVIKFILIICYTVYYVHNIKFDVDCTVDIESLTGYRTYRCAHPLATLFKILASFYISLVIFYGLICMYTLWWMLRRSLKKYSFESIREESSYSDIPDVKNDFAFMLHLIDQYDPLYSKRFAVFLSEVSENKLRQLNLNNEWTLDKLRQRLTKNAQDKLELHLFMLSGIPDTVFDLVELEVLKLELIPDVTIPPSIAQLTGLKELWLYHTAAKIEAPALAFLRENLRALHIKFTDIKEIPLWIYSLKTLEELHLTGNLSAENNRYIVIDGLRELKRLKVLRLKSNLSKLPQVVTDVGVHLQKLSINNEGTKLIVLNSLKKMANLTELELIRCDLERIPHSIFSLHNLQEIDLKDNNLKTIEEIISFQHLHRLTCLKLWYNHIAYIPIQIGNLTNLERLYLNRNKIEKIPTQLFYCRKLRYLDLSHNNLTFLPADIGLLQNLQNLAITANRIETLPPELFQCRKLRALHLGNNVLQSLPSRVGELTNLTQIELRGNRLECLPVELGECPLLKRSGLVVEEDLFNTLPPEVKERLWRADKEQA
UniProt P49916: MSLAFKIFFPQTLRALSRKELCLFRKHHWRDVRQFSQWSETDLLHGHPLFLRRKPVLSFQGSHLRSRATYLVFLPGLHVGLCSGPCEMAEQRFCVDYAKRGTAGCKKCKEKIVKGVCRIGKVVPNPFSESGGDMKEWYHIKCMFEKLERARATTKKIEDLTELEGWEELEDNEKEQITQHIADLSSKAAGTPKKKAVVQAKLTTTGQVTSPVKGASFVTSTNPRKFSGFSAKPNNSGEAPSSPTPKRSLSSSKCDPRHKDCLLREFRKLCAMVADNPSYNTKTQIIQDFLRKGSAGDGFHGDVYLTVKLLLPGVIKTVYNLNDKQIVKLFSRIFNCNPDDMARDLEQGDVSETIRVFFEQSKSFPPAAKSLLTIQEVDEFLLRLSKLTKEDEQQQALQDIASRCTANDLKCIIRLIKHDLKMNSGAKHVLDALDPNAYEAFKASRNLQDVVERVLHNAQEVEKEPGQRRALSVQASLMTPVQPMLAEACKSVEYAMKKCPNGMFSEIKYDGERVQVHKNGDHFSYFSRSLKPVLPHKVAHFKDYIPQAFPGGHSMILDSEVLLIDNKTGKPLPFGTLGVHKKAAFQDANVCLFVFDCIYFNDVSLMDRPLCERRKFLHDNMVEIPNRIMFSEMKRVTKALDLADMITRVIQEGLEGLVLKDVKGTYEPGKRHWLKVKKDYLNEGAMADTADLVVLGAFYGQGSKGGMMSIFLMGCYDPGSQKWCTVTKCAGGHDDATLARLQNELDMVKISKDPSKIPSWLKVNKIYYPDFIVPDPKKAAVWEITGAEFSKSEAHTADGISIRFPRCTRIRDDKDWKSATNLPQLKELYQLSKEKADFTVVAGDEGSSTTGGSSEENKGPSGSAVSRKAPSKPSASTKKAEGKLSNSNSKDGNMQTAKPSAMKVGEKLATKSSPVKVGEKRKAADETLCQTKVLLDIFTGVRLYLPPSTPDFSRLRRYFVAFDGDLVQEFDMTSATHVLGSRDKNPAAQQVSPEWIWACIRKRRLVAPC
UniProt Q86WA8: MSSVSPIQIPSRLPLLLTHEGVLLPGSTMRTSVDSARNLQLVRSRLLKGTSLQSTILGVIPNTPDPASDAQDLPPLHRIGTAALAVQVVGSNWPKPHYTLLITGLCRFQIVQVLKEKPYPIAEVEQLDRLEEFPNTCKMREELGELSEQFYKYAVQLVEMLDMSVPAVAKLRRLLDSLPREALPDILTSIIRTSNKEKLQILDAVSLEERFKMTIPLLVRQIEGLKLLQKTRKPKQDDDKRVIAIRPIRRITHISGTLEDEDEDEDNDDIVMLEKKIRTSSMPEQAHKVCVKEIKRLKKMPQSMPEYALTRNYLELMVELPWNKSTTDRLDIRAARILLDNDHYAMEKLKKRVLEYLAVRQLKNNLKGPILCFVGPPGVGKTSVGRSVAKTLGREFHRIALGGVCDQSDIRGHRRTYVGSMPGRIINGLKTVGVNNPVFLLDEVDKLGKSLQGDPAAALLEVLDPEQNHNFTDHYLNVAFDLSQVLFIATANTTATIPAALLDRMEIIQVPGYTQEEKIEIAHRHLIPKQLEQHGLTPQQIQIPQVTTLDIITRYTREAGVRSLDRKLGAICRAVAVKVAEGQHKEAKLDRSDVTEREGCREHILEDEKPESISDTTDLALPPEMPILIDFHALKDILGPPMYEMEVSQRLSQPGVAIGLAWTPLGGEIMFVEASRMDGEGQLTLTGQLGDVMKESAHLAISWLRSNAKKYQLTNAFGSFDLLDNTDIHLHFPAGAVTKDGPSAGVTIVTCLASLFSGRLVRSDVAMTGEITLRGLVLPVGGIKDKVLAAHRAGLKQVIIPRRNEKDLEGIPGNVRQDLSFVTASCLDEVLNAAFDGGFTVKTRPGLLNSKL
UniProt O60711: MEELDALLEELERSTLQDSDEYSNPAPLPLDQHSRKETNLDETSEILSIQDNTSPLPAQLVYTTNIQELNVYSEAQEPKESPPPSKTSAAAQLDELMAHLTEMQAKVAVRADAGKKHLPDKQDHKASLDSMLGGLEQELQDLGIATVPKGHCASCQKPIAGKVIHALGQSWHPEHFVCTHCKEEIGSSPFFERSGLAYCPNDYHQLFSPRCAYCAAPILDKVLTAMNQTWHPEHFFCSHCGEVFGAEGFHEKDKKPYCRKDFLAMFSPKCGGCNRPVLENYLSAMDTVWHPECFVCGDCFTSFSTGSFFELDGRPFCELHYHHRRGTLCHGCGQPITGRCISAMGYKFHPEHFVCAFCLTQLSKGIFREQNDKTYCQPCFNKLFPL
UniProt Q8N1G4: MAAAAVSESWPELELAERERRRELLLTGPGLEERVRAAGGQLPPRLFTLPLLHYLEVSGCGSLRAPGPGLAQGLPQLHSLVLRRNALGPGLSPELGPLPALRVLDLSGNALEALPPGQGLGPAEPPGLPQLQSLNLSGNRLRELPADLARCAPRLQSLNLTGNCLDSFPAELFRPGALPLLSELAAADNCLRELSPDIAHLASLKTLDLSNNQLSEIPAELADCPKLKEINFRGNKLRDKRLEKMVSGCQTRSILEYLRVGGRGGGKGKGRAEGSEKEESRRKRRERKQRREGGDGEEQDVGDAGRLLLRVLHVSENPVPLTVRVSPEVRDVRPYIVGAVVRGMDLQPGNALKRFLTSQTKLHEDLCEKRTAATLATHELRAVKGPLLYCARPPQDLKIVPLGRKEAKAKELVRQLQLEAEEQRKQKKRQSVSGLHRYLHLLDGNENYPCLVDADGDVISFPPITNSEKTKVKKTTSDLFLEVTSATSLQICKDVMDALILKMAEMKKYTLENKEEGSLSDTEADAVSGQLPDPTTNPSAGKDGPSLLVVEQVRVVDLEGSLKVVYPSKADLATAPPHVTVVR
UniProt Q9BT23: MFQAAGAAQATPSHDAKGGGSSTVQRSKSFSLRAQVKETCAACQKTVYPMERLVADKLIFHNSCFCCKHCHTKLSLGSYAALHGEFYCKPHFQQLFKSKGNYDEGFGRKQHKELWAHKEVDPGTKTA
UniProt P48059, whole entry, looked up: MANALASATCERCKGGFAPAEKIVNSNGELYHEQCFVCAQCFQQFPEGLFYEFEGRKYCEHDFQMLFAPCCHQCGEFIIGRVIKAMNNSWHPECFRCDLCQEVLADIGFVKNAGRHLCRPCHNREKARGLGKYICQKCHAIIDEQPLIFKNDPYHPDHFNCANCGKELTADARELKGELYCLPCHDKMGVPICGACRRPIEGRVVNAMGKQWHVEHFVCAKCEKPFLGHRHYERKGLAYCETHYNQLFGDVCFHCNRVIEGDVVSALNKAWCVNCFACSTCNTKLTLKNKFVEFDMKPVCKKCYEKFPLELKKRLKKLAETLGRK

Compound: Cc1cc(ccc1-c1ccccc1)C(=O)N1CCCN(CC1)C(=O)CCl [compound 10]
Experiment: probe-labelled cysteine peptide fold change vs DMSO (competition) (log2 fold change); higher = less target engagement (more negative = stronger competition)
Details: THP-1, incubation time: 4 h
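Note: competitive profiling in live THP-1 cells: cysteine peptides tagged with an iodoacetamide desthiobiotin (IA-DTB) probe, intensity after compound treatment relative to DMSO-treated cells.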

## LGALSL_Q3ZCW2_130_VEILCEHPR (UniProt Q3ZCW2)
10 µM
  probe-labelled cysteine peptide fold change: 0.305
50 µM
  probe-labelled cysteine peptide fold change: 0.368

## LIN37_Q96GY3_28_NQLDAVLQCLLEK (UniProt Q96GY3)
10 µM
  probe-labelled cysteine peptide fold change: -0.0473
50 µM
  probe-labelled cysteine peptide fold change: -0.321

## LRPPRC_P42704_380_EDGPSVFGSFFLQHCVTMNTPVEK (UniProt P42704)
10 µM
  probe-labelled cysteine peptide fold change: 0.0471
50 µM
  probe-labelled cysteine peptide fold change: 0.322

## LIMA1_Q9UHB6_316_ENVPPGPEVCITHQEGEK (UniProt Q9UHB6)
10 µM
  probe-labelled cysteine peptide fold change: -0.276
50 µM
  probe-labelled cysteine peptide fold change: -0.124

## LPP_Q93052_524_SLDGIPFTVDAGGLIHCIEDFHKK (UniProt Q93052)
10 µM
  probe-labelled cysteine peptide fold change: -0.0384
50 µM
  probe-labelled cysteine peptide fold change: -0.452

## LRRC8A_Q8IWT6_768+776_GNRLECLPVELGECPLLK (UniProt Q8IWT6)
10 µM
  probe-labelled cysteine peptide fold change: -0.106
50 µM
  probe-labelled cysteine peptide fold change: -0.0226

## LMNA_P02545_570_SVTVVEDDEDEDGDDLLHHHHGSHCSSSGDPAEYNLR (UniProt P02545)
10 µM
  probe-labelled cysteine peptide fold change: 0.282
50 µM
  probe-labelled cysteine peptide fold change: 0.336

## LIG3_P49916_729_CAGGHDDATLAR (UniProt P49916)
10 µM
  probe-labelled cysteine peptide fold change: 0.123
50 µM
  probe-labelled cysteine peptide fold change: 0.00897

## LONP2_Q86WA8_405_IALGGVCDQSDIR (UniProt Q86WA8)
10 µM
  probe-labelled cysteine peptide fold change: 0.0443
50 µM
  probe-labelled cysteine peptide fold change: 0.172

## LPXN_O60711_155_GHCASCQK (UniProt O60711)
10 µM
  probe-labelled cysteine peptide fold change: 0.146
50 µM
  probe-labelled cysteine peptide fold change: 0.237

## LRRC47_Q8N1G4_60_LFTLPLLHYLEVSGCGSLR (UniProt Q8N1G4)
10 µM
  probe-labelled cysteine peptide fold change: 0.0276
50 µM
  probe-labelled cysteine peptide fold change: 0.0952

## LIMD2_Q9BT23_43_ETCAACQK (UniProt Q9BT23)
10 µM
  probe-labelled cysteine peptide fold change: 0.117
50 µM
  probe-labelled cysteine peptide fold change: -0.234

## LIMS1_P48059_161+164_NDPYHPDHFNCANCGK (UniProt P48059)
10 µM
  probe-labelled cysteine peptide fold change: 0.0894
50 µM
  probe-labelled cysteine peptide fold change: -0.144

## LRRC8A_Q8IWT6_776_GNRLECLPVELGECPLLK (UniProt Q8IWT6)
10 µM
  probe-labelled cysteine peptide fold change: 0.113
50 µM
  probe-labelled cysteine peptide fold change: -0.161
